{"source": "patent US10221217", "about": "(University of Washington, dated 2019)", "binders": {"B1": {"name": "c1d1_v2 (other)", "chain": "DTITLPCRPAPPPHCSSNITGLILTRDGGNSNNESEIFRPGGGDMAGMPRCGGGAVSTQLLLNGSLAEEEVVCRSVNFTDNAKSICVQLNTSVEINCTGAGHCNISRAKWNNTLKQIASCLREQFGNNKTIIFKQSSGGDPEIVTHSFNCGGEFFYCDSTQLFNSTWFGTKHHHHHH"}}, "biological_target": "T1, CD4-IgG2 (UniProt P01730 26-204)", "T1 construct": "Captured on SPR chip; not shown: IgG2 portion", "experiment": "SPR, CD4-IgG2 captured, construct as analyte", "data": [{"binder": "B1", "values": [{"measurement": "binding result", "result": "no binding (tested: 1 µM)"}]}]}
